# Assay results: PubChem BioAssay AID504467 (National Center for Advancing Translational Sciences (NCATS), 2011)
# In all, about 330,000 compounds went through this assay and about 7,700 (2.3%) were called active. Inconclusive results, whose numbers are uncertain, are shown with a selection of clear calls. Calls follow the shape of the dose curve; as a rule, active = well fitted inhibition curve with a large enough effect; inconclusive = small, poorly fitted or top-dose-only effect, or effect the other way; inactive = flat fitted curve, though single readings scatter. Where the call is inconclusive, the potency comes from a doubtful curve fit.
# Experiment: qHTS screen for small molecules that inhibit ELG1-dependent DNA repair in human embryonic kidney (HEK293T) cells expressing luciferase-tagged ELG1; also: nearly all actives have a fitted effect of over 55% in size
# Details: HEK293T ELG1-luciferase reporter, luminescence, 16 h, DNA damage induced by 5-fluorouridine; activity change, negative = inhibition: at 46.1 µM (top of the series)
# Procedure, shortened: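 Luminescence from the luciferase reporter, measured 30 min after ONE-Glo reagent at room temperature, was the read-out. Beforehand, 2,000 cells per well were exposed for 16 hr at 37 °C to 5-fluorouridine together with compound or vehicle.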
# % is scaled to controls: 0 for no effect and ±100 for the full control effect; potency is read from the fitted curve at half-maximal effect.
Compound,Potency,"activity change, negative = inhibition"
Cc1c(C(=O)Nc2ccc3c(c2)CCC3)cccc1[N+](=O)[O-],"inconclusive: 9.2 µM [activator, partial curve]",–
O=C(CSc1nnc(-c2cccnc2)n1-c1ccc(SC(F)F)cc1)N1CCCc2ccccc21,"inconclusive: 29.1 µM [inhibitor, single point]",–
CS(=O)(=O)N1CCc2cc(C(=O)Nc3ccccc3Cl)ccc21,"inconclusive: 4.61 µM [activator, partial curve]",–
Cc1cccc(OCc2nc3c4c(ncn3n2)-c2ccccc2CC42CCCC2)c1,"inconclusive: 29.1 µM [inhibitor, single point]",–
Cc1ccc(S(=O)(=O)N(C)C)cc1NC(=O)C(C)N(C)CCOc1ccc(Cl)cc1 (stereo not drawn),"inconclusive: 25.9 µM [inhibitor, partial curve]",–
COC(=O)Cn1nc(-c2ccccc2)c2ccccc21,"inconclusive: 29.1 µM [inhibitor, single point]",–
O=C(Nc1nnc(CCc2ccccc2)s1)c1cccc(F)c1,"inconclusive: 20.6 µM [activator, single point]",–
CCOC(=O)c1cc(NC(=O)Nc2ccccc2Cl)c(C)nc1C,–,inactive: -23%
CCCC[C@@H]1C[C@H]1[C@@H](NC(=O)c1cccs1)c1ccc(Cl)cc1,"inconclusive: 23.1 µM [inhibitor, single point]",–
CCOC(=O)C1=C(C)N(C[C@@H]2CC[C@@H](Cc3ccc(-c4ccccc4)cc3)O2)C(=O)NC1c1ccc(Cl)cc1 (stereo partly drawn),–,inactive: -18.9%
CC(=O)c1ccc(S(=O)(=O)NCc2ccc(C(=O)N(C)CC(=O)Nc3cccc(F)c3)cc2)cc1,"inconclusive: 20.6 µM [inhibitor, single point]",–
CCn1c(CCc2ccccc2)nc2ccccc21,"inconclusive: 20.6 µM [activator, partial curve]",–
CCOC(=O)c1c(C)[nH]c(C2=NNC(=Nc3cccc(Cl)c3)SC2)c1C,"inconclusive: 20.6 µM [inhibitor, single point]",–
CC(C)OCCCn1c(=S)[nH]c2ccc(N3CCOCC3)cc2c1=O,"inconclusive: 8.91 µM [inhibitor, partial curve, poor fit]",–
COc1ccc(C(=O)/C=C/C(=O)N(CC(=O)NC2CCCCC2)Cc2cccs2)c(O)c1,"inconclusive: 29.1 µM [inhibitor, single point]",–
O=C(Nc1ccc2c(c1)Cc1ccccc1-2)c1ccc(Br)o1,"inconclusive: 14.6 µM [activator, partial curve]",–
N#CCSc1nnc(COc2cccc3ccccc23)n1-c1ccccc1,active: 20.6 µM,–
COc1ccc(N=CC2=C(O)c3ccccc3C2=O)cc1,"inconclusive: 0.231 µM [activator, full curve]",–
COc1cc(NC(=O)c2nnn(Cc3ccc(SC)cc3)c2N)cc(OC)c1,"inconclusive: 29.1 µM [inhibitor, single point]",–
COC(=O)CSc1nc(-c2cccs2)ccc1C#N,"inconclusive: 8.2 µM [activator, partial curve]",–
Cc1ccc(-c2nc(CS(=O)CC(=O)NCCN3CCCC3)c(C)o2)cc1 (stereo not drawn),"inconclusive: 11.6 µM [activator, partial curve, poor fit]",–
CCNC(=O)c1ccc(NC(=O)CC2SC(N3CCCC3)=NC2=O)cc1 (stereo not drawn),–,inactive: 8.76%

Compound,Potency,"activity change, negative = inhibition"
CCOC(=O)C1=C(COC(=O)/C=C/c2cccc(OC)c2)NC(=O)NC1C (stereo not drawn),"inconclusive: 25.9 µM [inhibitor, single point]",–
Cn1c(SCC(=O)N2CCCc3ccccc32)nc2ccccc2c1=O,active: 16.4 µM,–
Cn1nccc1C(=O)N1CCCC(C(=O)c2cccc3ccccc23)C1 (stereo not drawn),–,inactive: -5.93%
O=c1oc2ccccc2c(Nc2ccc(O)cc2)c1[N+](=O)[O-],–,inactive: -20.4%
Cc1nc(Cl)c(C(=O)Nc2cccc(F)c2)c(C)c1Cl,"inconclusive: 29.1 µM [inhibitor, single point]",–
CCc1noc(C)c1C(=O)NC1CCCc2c1cnn2-c1cc(C)cc(C)c1 (stereo not drawn),"inconclusive: 16.4 µM [inhibitor, single point]",–
CC(C)(C)c1ccc(/C=C/C(=O)N2CCCCC2)cc1,"inconclusive: 6.51 µM [activator, partial curve]",–
COc1ccc(CCNC(=O)CN(C)S(=O)(=O)c2cccs2)cc1OC,–,inactive: 2.74%
O=c1c2ccccc2nc2oc3ccccc3n12,"inconclusive: 5.62 µM [activator, partial curve, poor fit]",–
COc1ccc(NC(=O)CCNC(=O)c2ccccc2Cl)cc1OC,–,inactive: 15.6%
O=C(NCc1ccncc1)c1cc(C(=O)C2CC2)c[nH]1,–,inactive: 13.1%
CC(=O)Nc1ccc(-c2nc3ccc(NC(C)=O)cc3o2)cc1,"inconclusive: 16.4 µM [activator, partial curve]",–
Cc1ccc(/C=C/c2ccc(N(C)C)cc2)[n+](C)c1,–,inactive: 29.3%
Cc1cc(-c2ccccc2)nc2cc(C(=O)N(Cc3ccccc3)Cc3ccccc3)nn12,"inconclusive: 16.4 µM [inhibitor, single point]",–
CCOC(=O)c1sc(NC(=O)Nc2ccc(F)cc2)nc1C,"inconclusive: 1.46 µM [activator, partial curve]",–
O=C(NC(=S)Nc1ccc(S(=O)(=O)NC2CCCCC2)cc1)c1cccs1,"inconclusive: 23.1 µM [inhibitor, partial curve]",–
CC(C)Oc1cccc(-c2cc(C(=O)N3CCN(c4ncccn4)CC3)c3ccccc3n2)c1,active: 14.6 µM,–
O=C(Nc1ccc([N+](=O)[O-])cc1)c1cc2ccccc2nc1Cl,active: 18.3 µM,–
O=C(N/N=C/CCc1ccccc1)c1ccc(CN2c3cccc4cccc(c34)S2(=O)=O)cc1,–,inactive: -27.2%
CCOC(=O)C1(CCc2ccccc2)CCN(C(=O)c2cc(C)nc(C)n2)CC1,"inconclusive: 14.6 µM [activator, partial curve, poor fit]",–
COC(=O)C1=C(C)N(Cc2ccccc2)C(=NCc2cccc(C(F)(F)F)c2)N[C@H]1c1cccc(F)c1,"inconclusive: 29.1 µM [inhibitor, single point]",–

# Entries of single compounds as entered above:
# `COc1ccc(CCNC(=O)CN(C)S(=O)(=O)c2cccs2)cc1OC` as listed: activity change, negative = inhibition: inactive: 2.74%
# `O=C(NCc1ccncc1)c1cc(C(=O)C2CC2)c[nH]1` as listed: activity change, negative = inhibition: inactive: 13.1%
